Test results taken from article PMC7332293.
No constants are given. Whether binding was seen depends on the method and setting. Binding seen in cells or lysates may run through a third protein. A yes stands for co-enrichment or nearness to the bait. Other partners may have been found. For part of these data: Tags and fused reporters may be left off the sequences shown.

Sequences of proteins named here, by UniProt entry; tags and fusion partners are left off.
UniProt Q86TM6: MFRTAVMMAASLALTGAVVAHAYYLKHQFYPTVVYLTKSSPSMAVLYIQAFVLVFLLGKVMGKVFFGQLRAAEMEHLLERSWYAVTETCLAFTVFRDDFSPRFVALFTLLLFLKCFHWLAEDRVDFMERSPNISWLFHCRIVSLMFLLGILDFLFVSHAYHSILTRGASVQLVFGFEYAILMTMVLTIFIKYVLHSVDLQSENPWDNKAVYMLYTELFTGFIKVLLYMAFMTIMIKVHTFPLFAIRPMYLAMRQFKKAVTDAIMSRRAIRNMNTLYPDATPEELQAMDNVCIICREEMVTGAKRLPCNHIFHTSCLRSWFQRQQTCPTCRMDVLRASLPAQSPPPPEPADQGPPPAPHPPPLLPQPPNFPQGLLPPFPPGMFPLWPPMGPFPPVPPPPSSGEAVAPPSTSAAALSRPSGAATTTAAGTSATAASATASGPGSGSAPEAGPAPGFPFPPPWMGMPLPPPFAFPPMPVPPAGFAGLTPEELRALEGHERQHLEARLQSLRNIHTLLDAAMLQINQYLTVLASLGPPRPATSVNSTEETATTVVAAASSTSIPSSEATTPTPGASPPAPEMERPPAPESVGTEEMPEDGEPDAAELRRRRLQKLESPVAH
UniProt Q9UKV5: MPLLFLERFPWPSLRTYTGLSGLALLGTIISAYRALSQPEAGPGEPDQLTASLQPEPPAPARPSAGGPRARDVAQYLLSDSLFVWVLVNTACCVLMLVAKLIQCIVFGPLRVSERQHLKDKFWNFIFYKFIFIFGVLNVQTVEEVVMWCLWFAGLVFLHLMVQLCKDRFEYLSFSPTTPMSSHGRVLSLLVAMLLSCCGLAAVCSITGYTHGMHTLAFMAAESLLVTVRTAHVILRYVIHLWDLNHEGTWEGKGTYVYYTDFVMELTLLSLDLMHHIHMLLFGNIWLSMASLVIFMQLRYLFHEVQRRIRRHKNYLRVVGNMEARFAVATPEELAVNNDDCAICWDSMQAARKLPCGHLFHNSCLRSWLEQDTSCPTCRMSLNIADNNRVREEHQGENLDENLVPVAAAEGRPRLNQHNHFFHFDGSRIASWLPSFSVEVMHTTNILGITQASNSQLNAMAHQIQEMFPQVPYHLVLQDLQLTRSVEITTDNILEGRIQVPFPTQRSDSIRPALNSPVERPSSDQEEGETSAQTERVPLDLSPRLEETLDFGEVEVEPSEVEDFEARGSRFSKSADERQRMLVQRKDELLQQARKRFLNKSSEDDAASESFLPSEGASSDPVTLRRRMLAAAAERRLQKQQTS

B1: ERLIN2 (protein, UniProt O94905 1-339)
chain: MAQLGAVVAVASSFFCASLFSAVHKIEEGHIGVYYRGGALLTSTSGPGFHLMLPFITSYKSVQTTLQTDEVKNVPCGTSGGVMIYFDRIEVVNFLVPNAVYDIVKNYTADYDKALIFNKIHHELNQFCSVHTLQEVYIELFDQIDENLKLALQQDLTSMAPGLVIQAVRVTKPNIPEAIRRNYELMESEKTKLLIAAQKQKVVEKEAETERKKALIEAEKVAQVAEITYGQKVMEKETEKKISEIEDAAFLAREKAKADAECYTAMKIAEANKLKLTPEYLQLMKYKAIASNSKIYFGKDIPNMFMDSAGSVSKQFEGLADKLSFGLEDEPLETATKEN
B2: Herp2 (protein, UniProt Q9BSE4 1-406)
chain: MDQSGMEIPVTLIIKAPNQKYSDQTISCFLNWTVGKLKTHLSNVYPSKPLTKDQRLVYSGRLLPDHLQLKDILRKQDEYHMVHLVCTSRTPPSSPKSSTNRESHEALASSSNSSSDHSGSTTPSSGQETLSLAVGSSSEGLRQRTLPQAQTDQAQSHQFPYVMQGNVDNQFPGQAAPPGFPVYPAFSPLQMLWWQQMYAHQYYMQYQAAVSAQATSNVNPTQPTTSQPLNLAHVPGEEPPPAPNLVAQENRPMNENVQMNAQGGPVLNEEDFNRDWLDWMYTFSRAAILLSIVYFYSSFSRFIMVMGAMLLVYLHQAGWFPFRQEGGHQQAPNNNAEVNNDGQNANNLELEEMERLMDDGLEDESGEDGGEDASAIQRPGLMASAWSFITTFFTSLIPEGPPQVAN
B3: FAM8A1 (protein, UniProt Q9UBU6 1-413)
chain: MAEGPEEARGHPPGQDDGGGDHEPVPSLRGPPTTAVPCPRDDPQAEPQAPGRPTAPGLAAAAAADKLEPPRELRKRGEAASGSGAELQEQAGCEAPEAAAPRERPARLSAREYSRQVHEWLWQSYCGYLTWHSGLAAFPAYCSPQPSPQSFPSGGAAVPQAAAPPPPQLGYYNPFYFLSPGAAGPDPRTAAGISTPAPVAGLGPRAPHVQASVRATPVTRVGSAAPSRSPSETGRQAGREYVIPSLAHRFMAEMVDFFILFFIKATIVLSIMHLSGIKDISKFAMHYIIEEIDEDTSMEDLQKMMVVALIYRLLVCFYEIICIWGAGGATPGKFLLGLRVVTCDTSVLIAPSRVLVIPSSNVSITTSTIRALIKNFSIASFFPAFITLLFFQHNRTAYDIVAGTIVVKRNGVR
B4: SLC39A14/ZIP14 (protein, UniProt Q15043 31-492)
chain: SSLGAPAISAASFLQDLIHRYGEGDSLTLQQLKALLNHLDVGVGRGNVTQHVQGHRNLSTCFSSGDLFTAHNFSEQSRIGSSELQEFCPTILQQLDSRACTSENQENEENEQTEEGRPSAVEVWGYGLLCVTVISLCSLLGASVVPFMKKTFYKRLLLYFIALAIGTLYSNALFQLIPEAFGFNPLEDYYVSKSAVVFGGFYLFFFTEKILKILLKQKNEHHHGHSHYASESLPSKKDQEEGVMEKLQNGDLDHMIPQHCSSELDGKAPMVDEKVIVGSLSVQDLQASQSACYWLKGVRYSDIGTLAWMITLSDGLHNFIDGLAIGASFTVSVFQGISTSVAILCEEFPHELGDFVILLNAGMSIQQALFFNFLSACCCYLGLAFGILAGSHFSANWIFALAGGMFLYISLADMFPEMNEVCQEDERKGSILIPFIIQNLGLLTGFTIMVVLTMYSGQIQIG
B5: DHCR7 (enzyme, UniProt Q9UBM7 1-475)
chain: MAAKSQPNIPKAKSLDGVTNDRTASQGQWGRAWEVDWFSLASVIFLLLFAPFIVYYFIMACDQYSCALTGPVVDIVTGHARLSDIWAKTPPITRKAAQLYTLWVTFQVLLYTSLPDFCHKFLPGYVGGIQEGAVTPAGVVNKYQINGLQAWLLTHLLWFANAHLLSWFSPTIIFDNWIPLLWCANILGYAVSTFAMVKGYFFPTSARDCKFTGNFFYNYMMGIEFNPRIGKWFDFKLFFNGRPGIVAWTLINLSFAAKQRELHSHVTNAMVLVNVLQAIYVIDFFWNETWYLKTIDICHDHFGWYLGWGDCVWLPYLYTLQGLYLVYHPVQLSTPHAVGVLLLGLVGYYIFRVANHQKDLFRRTDGRCLIWGRKPKVIECSYTSADGQRHHSKLLVSGFWGVARHFNYVGDLMGSLAYCLACGGGHLLPYFYIIYMAILLTHRCLRDEHRCASKYGRDWERYTAAVPYRLLPGIF
B6: OS-9 (protein, UniProt Q13438 26-667)
chain: GGVGSLNLEELSEMRYGIEILPLPVMGGQSQSSDVVIVSSKYKQRYECRLPAGAIHFQREREEETPAYQGPGIPELLSPMRDAPCLLKTKDWWTYEFCYGRHIQQYHMEDSEIKGEVLYLGYYQSAFDWDDETAKASKQHRLKRYHSQTYGNGSKCDLNGRPREAEVRFLCDEGAGISGDYIDRVDEPLSCSYVLTIRTPRLCPHPLLRPPPSAAPQAILCHPSLQPEEYMAYVQRQADSKQYGDKIIEELQDLGPQVWSETKSGVAPQKMAGASPTKDDSKDSDFWKMLNEPEDQAPGGEEVPAEEQDPSPEAADSASGAPNDFQNNVQVKVIRSPADLIRFIEELKGGTKKGKPNIGQEQPVDDAAEVPQREPEKERGDPERQREMEEEEDEDEDEDEDEDERQLLGEFEKELEGILLPSDRDRLRSEVKAGMERELENIIQETEKELDPDGLKKESERDRAMLALTSTLNKLIKRLEEKQSPELVKKHKKKRVVPKKPPPSPQPTEEDPEHRVRVRVTKLRLGGPNQDLTVLEMKRENPQLKQIEGLVKELLEREGLTAAGKIEIKIVRPWAEGTEEGARWLTDEDTRNLKEIFFNILVPGAEEAQKERQRQKELESNYRRVWGSPGGEGTGDLDEFDF
B7: RNF170 (endogenous, found as HCIP) (enzyme, UniProt Q96K19 1-258)
chain: MAKYQGEVQSLKLDDDSVIEGVSDQVLVAVVVSFALIATLVYALFRNVHQNIHPENQELVRVLREQLQTEQDAPAATRQQFYTDMYCPICLHQASFPVETNCGHLFCGACIIAYWRYGSWLGAISCPICRQTVTLLLTVFGEDDQSQDVLRLHQDINDYNRRFSGQPRSIMERIMDLPTLLRHAFREMFSVGGLFWMFRIRIILCLMGAFFYLISPLDFVPEALFGILGFLDDFFVIFLLLIYISIMYREVITQRLTR
B8: Derlin1/DERL1 (protein, UniProt Q9BUN8 1-251)
chain: MSDIGDWFRSIPAITRYWFAATVAVPLVGKLGLISPAYLFLWPEAFLYRFQIWRPITATFYFPVGPGTGFLYLVNLYFLYQYSTRLETGAFDGRPADYLFMLLFNWICIVITGLAMDMQLLMIPLIMSVLYVWAQLNRDMIVSFWFGTRFKACYLPWVILGFNYIIGGSVINELIGNLVGHLYFFLMFRYPMDLGGRNFLSTPQFLYRWLPSRRGGVSGFGVPPASMRRAADQNGGGGRHNWGQGFRLGDQ
B9: UBAC2 (protein, UniProt Q8NBM4 36-344)
chain: HCQKLFVYDLHAVKNDFQIWRLICGRIICLDLKDTFCSSLLIYNFRIFERRYGSRKFASFLLGSWVLSALFDFLLIEAMQYFFGITAASNLPSGFLAPVFALFVPFYCSIPRVQVAQILGPLSITNKTLIYILGLQLFTSGSYIWIVAISGLMSGLCYDSKMFQVHQVLCIPSWMAKFFSWTLEPIFSSSEPTSEARIGMGATLDIQRQQRMELLDRQLMFSQFAQGRRQRQQQGGMINWNRLFPPLRQRQNVNYQGGRQSEPAAPPLEVSEEQVARLMEMGFSRGDALEALRASNNDLNVATNFLLQH
B10: HMGCR (enzyme, UniProt P04035 1-888)
chain: MLSRLFRMHGLFVASHPWEVIVGTVTLTICMMSMNMFTGNNKICGWNYECPKFEEDVLSSDIIILTITRCIAILYIYFQFQNLRQLGSKYILGIAGLFTIFSSFVFSTVVIHFLDKELTGLNEALPFFLLLIDLSRASTLAKFALSSNSQDEVRENIARGMAILGPTFTLDALVECLVIGVGTMSGVRQLEIMCCFGCMSVLANYFVFMTFFPACVSLVLELSRESREGRPIWQLSHFARVLEEEENKPNPVTQRVKMIMSLGLVLVHAHSRWIADPSPQNSTADTSKVSLGLDENVSKRIEPSVSLWQFYLSKMISMDIEQVITLSLALLLAVKYIFFEQTETESTLSLKNPITSPVVTQKKVPDNCCRREPMLVRNNQKCDSVEEETGINRERKVEVIKPLVAETDTPNRATFVVGNSSLLDTSSVLVTQEPEIELPREPRPNEECLQILGNAEKGAKFLSDAEIIQLVNAKHIPAYKLETLMETHERGVSIRRQLLSKKLSEPSSLQYLPYRDYNYSLVMGACCENVIGYMPIPVGVAGPLCLDEKEFQVPMATTEGCLVASTNRGCRAIGLGGGASSRVLADGMTRGPVVRLPRACDSAEVKAWLETSEGFAVIKEAFDSTSRFARLQKLHTSIAGRNLYIRFQSRSGDAMGMNMISKGTEKALSKLHEYFPEMQILAVSGNYCTDKKPAAINWIEGRGKSVVCEAVIPAKVVREVLKTTTEAMIEVNINKNLVGSAMAGSIGGYNAHAANIVTAIYIACGQDAAQNVGSSNCITLMEASGPTNEDLYISCTMPSIEIGTVGGGTNLLPQQACLQMLGVQGACKDNPGENARQLARIVCGTVMAGELSLMAALAAGHLVKSHMIHNRSKINLQDLQGACTKKTA

target: T1, FLAG-HA-tagged RNF170 (human) (UniProt Q96K19); experiment: affinity purification with mass spectrometry; FLAG-HA-tagged E3 induced with DOX in stable Flp-In293 cells; lysates in 1% LMNG (150 mM NaCl, 50 mM Tris-HCl pH 7.4, 5 mM EDTA); anti-FLAG agarose, 2 hr; eluted with SDS; LC-MS/MS; HCIPs by BSCG and SINQ analysis
T1 sequence: B7 chain

binding, binds:
B1

target: Hrd1-FH (human) (UniProt Q86TM6); experiment: as above

binding, binds:
B2
B3
B4
B5
B6

target: T2, FH-RNF185 (human) (UniProt Q96GF1); experiment: as above
T2 sequence: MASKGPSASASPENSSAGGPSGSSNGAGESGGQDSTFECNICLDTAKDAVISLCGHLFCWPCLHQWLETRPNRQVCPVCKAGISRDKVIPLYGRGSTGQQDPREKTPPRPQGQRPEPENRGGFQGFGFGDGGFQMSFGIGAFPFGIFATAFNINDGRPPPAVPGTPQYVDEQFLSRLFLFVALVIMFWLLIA

binding, binds:
B1
B7

target: FLAG-HA-tagged gp78/AMFR (human) (UniProt Q9UKV5); experiment: as above

binding, binds:
B8
B9
B10
B7
